This is an account of results in patent US20180016344A1.

Protein sequences, listed by entry. Tags and fused reporters are not part of them. Lines headed by an entry give the natural chain unless they say otherwise; changes in a name come on top.
UniProt O14763: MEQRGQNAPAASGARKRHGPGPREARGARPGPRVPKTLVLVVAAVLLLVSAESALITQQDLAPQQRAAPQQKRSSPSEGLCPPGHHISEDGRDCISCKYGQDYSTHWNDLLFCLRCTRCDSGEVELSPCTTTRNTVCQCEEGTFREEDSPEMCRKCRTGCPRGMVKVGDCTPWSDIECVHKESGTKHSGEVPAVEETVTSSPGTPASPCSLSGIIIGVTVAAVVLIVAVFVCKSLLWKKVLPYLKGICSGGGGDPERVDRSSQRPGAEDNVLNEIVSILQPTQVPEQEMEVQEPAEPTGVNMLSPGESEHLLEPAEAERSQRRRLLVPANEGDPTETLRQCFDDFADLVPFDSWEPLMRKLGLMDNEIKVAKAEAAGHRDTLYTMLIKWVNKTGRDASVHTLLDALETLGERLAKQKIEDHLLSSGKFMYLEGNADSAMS

Positions count from the first letter of the chain named. No constants are given. Whether binding was seen depends on the method and setting. Some entries that bind do so weakly or less than the wild type.

Assay [1] concerns the target human DR5 (human) (UniProt O14763). Briefly: legend of FIG. 5.
Assay [2] has the same target. Nature of the assay: antibody titration read as MFI (log axis) against concentration in nM; the text does not describe the assay format or how DR5 was presented (Example 2).
Assay [3] concerns the target soluble human DR5 (tagged with histidine) (human) (UniProt O14763). Briefly: legend of FIG. 11.
The target is the same in assay [4]. Briefly: sandwich assay: soluble His-tagged human DR5 coat, diabody, then biotin-conjugated CD3.
Assay [5] shares this target. Nature of the assay: sandwich binding assay: shDR5-His (0.5 µg/mL) coated, diabody titrated (nM), CD3-biotin detected, read as RLU.

B1: DR5 mAb 1 (antibody, V domains shown)
VH: EVKFLESGGGLVQPGGSLKLSCVASGFDFSRYWMSWVRQAPGKGLEWIGEINPDSNTINYTPSLKDKFIISRDNAKNTLYLQMTKVRSEDTALYYCTRRAYYGNPAWFAYWGQGTLVTVSS
VL: DIVLTQSPASLAVSLGQRATISCRASKSVSSSGYSYMHWYQQKPGQPPKVLIFLSSNLDSGVPARFSGSGSGTDFTLNIHPVEDGDAATYYCQHSRDLPPTFGGGTKLEIK
B1: the binding entry with human DR5 (human) [1] and in the assay with human DR5 (human) [2] was “binds” in each case.

B2: hDR5 mAb 2 (2.3)×CD3 mAb 2 (bispecific antibody)
chain 1: DIQMTQSPSFLSASVGDRVTITCRASQDVNTAVAWYQQKPGKAPKLLIYWASTRHTGVPDRFSGSGSGTDFTLTISSLQPEDVATYYCQQHYITPWTFGGGTKLEIKGGGSGGGGEVQLVESGGGLVQPGGSLRLSCAASGFTFSTYAMNWVRQAPGKGLEWVGRIRSKYNNYATYYADSVKGRFTISRDDSKNSLYLQMNSLKTEDTAVYYCVRHGNFGNSYVSWFAYWGQGTLVTVSSASTKGEVAACEKEVAALEKEVAALEKEVAALEK
chain 2: QAVVTQEPSLTVSPGGTVTLTCRSSTGAVTTSNYANWVQQKPGQAPRGLIGGTNKRAPWTPARFSGSLLGGKAALTITGAQAEDEADYYCALWYSNLWVFGGGTKLTVLGGGGSGGGGQVQLVQSGAEVKKPGASVKVSCKASGYTFTEYILHWVRQAPGQGLEWMGWFYPGNNNIKYNEKFKDRVTITADKSTSTVYMELSSLRSEDTAVYYCARHEQGPGYFDYWGQGTLVTVSSASTKGKVAACKEKVAALKEKVAALKEKVAALKE
For the molecule B2, the binding result in assay [3], in assay [4] and in assay [5] was “binds” throughout.

B3: hDR5 mAb 2 (2.4)×CD3 mAb 2 (bispecific antibody)
chain 1: B2 chain 1 with D60S, V83I
chain 2: B2 chain 2
As for B3, the binding entry in assay [3], in assay [4] and in assay [5] was “binds” in each case.

B4: hDR5 mAb 2 (2.2)×CD3 mAb 2 (bispecific antibody)
chain 1: B2 chain 1 with R24K, D60S
chain 2: B2 chain 2
Turning to B4, the binding result in assay [3], in assay [4] and in assay [5] was “binds” throughout.

B5: hDR5 mAb 2 (2.5)×CD3 mAb 2 (bispecific antibody)
chain 1: B2 chain 1 with V83I
chain 2: B2 chain 2
On to B5, for which the binding entry in assay [3], in assay [4] and in assay [5] was “binds” throughout.

B6: DR5 mAb 2 (antibody, V domains shown)
VH: KVQLQQSGAELVKPGASVKLSCKASGYTFTEYILHWVKQKSGQGLEWIGWFYPGNNNIKYNEKFKDKATLTADKSSSTVYMELSRLTSEDSAVYFCARHEQGPGYFDYWGQGTTLTVSS
VL: DIVMTQSHKFMSTSVGDRVSITCKASQDVNTAVAWYQQKPGQSPKLLIYWASTRHTGVPDRFTGSGSGTDYTLTIKSVQAEDLTLYYCQQHYITPWTFGGGTKLEIK
For B6, the binding entry in the assay with human DR5 (human) [1] and with human DR5 (human) [2] was “binds” in each case.
